This note sets out measurements from PubChem BioAssay AID216 (DTP/NCI, 2004).

The test system of the assay is BDF1 mice, P288 leukemia ip, survival T/C. Description: NCI In Vivo Anticancer Drug Screen. Data for tumor model P288 Lymphocytic Leukemia (intraperitoneal) in B6D2F1 (BDF1) mice. As to conditions: T/C endpoint: survival time, mean or median, higher T/C = longer survival. How it is done:
The antitumor activity of compounds was measured in mice bearing transplantable tumors. Survival or tumor size were measured and the results are expressed as the measurement made in the treated group (T) divided by the measurement made in the vehicle treated control group (C). The tumor model used in this assay is P288 Lymphocytic Leukemia (intraperitoneal) in B6D2F1 (BDF1) mice

The mark [1] stands for this setting: dose: 2.5 mg/kg/injection, schedule: Q01DX010 (ip), vehicle: saline.
[2] abbreviates: dose: 5.0 mg/kg/injection, schedule: Q01DX010 (ip), vehicle: saline.
Where [3] appears, read: dose: 0.5 mg/kg/injection, schedule: Q01DX010 (ip), vehicle: saline.
Setting [4] is: dose: 1.0 mg/kg/injection, schedule: Q01DX010 (ip), vehicle: saline.
The mark [5] stands for this setting: dose: 0.63 mg/kg/injection, schedule: Q01DX010 (ip), vehicle: saline.
Where [6] appears, read: dose: 1.25 mg/kg/injection, schedule: Q01DX010 (ip), vehicle: saline.

The list is a part of this screen's results and no random one: it gathers some chemical classes. Not every dose and run of a compound is shown. T/C is the treated group as % of the vehicle group. Where survival is the endpoint, the PubChem record calls one and a half times the control and up active, and a quarter to a half above the control has no call in these data; cut-offs in other NCI protocols can differ. Some T/C values are marked as having no survivor count here; that says nothing about deaths at the dose. Schedules are NCI's codes, taken here to give the interval after Q, in days (D) or hours (H), and the number of doses after X. Brackets with × stand for listed records that agree. Some entries hold several experiments; the values are given in rising order. Some schedule codes hold Z or #, which are not explained here.

Regarding `ClCCN(CCCl)Cc1nc2ccccc2[nH]1`, the T/C is, setting by setting: (dose: 0.15 mg/kg/injection, schedule: Q01DX Z (ip), vehicle: carboxymethylcellulose (CMC)) 95 % of control [survivor count not shown]; (dose: 0.3 mg/kg/injection, schedule: Q01DX Z (ip), vehicle: carboxymethylcellulose (CMC)) 89 % of control [survivor count not shown]; (dose: 0.6 mg/kg/injection, schedule: Q01DX Z (ip), vehicle: carboxymethylcellulose (CMC)) 100 % of control [survivor count not shown]; (dose: 1.2 mg/kg/injection, schedule: Q01DX Z (ip), vehicle: carboxymethylcellulose (CMC)) 89 % of control [survivor count not shown]; under setting [1], 95 % of control [survivor count not shown]; under setting [2], 95 [survivor count not shown], 113 [survivor count not shown], 115 % of control [survivor count not shown]. The T/C (dose: 10.0 mg/kg/injection, schedule: Q01DX010 (ip), vehicle: saline) was 95 [survivor count not shown], 115 [survivor count not shown], 118 % of control [survivor count not shown].

As to `CC(C(=O)O)N(CCCl)CCCl` (stereo not drawn), the T/C is, setting by setting: under setting [3], 100 % of control [survivor count not shown] (2×); under setting [4], 105 [survivor count not shown] and 122 % of control [survivor count not shown]; (dose: 2.0 mg/kg/injection, schedule: Q01DX010 (ip), vehicle: saline) 100 [survivor count not shown] and 133 % of control [survivor count not shown]; (dose: 4.0 mg/kg/injection, schedule: Q01DX010 (ip), vehicle: saline) 116 [survivor count not shown] and 130 % of control [survivor count not shown]; (dose: 10.0 mg/kg/injection, schedule: Q01DX Z (ip), vehicle: carboxymethylcellulose (CMC)) 86 % of control [survivor count not shown].

In the case of `NC(Cc1ccccc1N(CCCl)CCCl)C(=O)O` (stereo not drawn), the T/C (dose: 0.06 mg/kg/injection, schedule: Q01DX Z (ip), vehicle: carboxymethylcellulose (CMC)) is 103 % of control [survivor count not shown]; the T/C (dose: 0.12 mg/kg/injection, schedule: Q01DX Z (ip), vehicle: carboxymethylcellulose (CMC)) is 126 % of control [survivor count not shown]; the T/C (dose: 0.25 mg/kg/injection, schedule: Q01DX010 (ip), vehicle: saline) is 127 % of control [survivor count not shown]; the T/C (dose: 0.25 mg/kg/injection, schedule: Q01DX Z (ip), vehicle: carboxymethylcellulose (CMC)) was 137 % of control [survivor count not shown]; the T/C under setting [3] was 188 % of control [survivor count not shown]; the T/C (dose: 0.5 mg/kg/injection, schedule: Q01DX Z (ip), vehicle: carboxymethylcellulose (CMC)) is 152 % of control [survivor count not shown]. Besides, the T/C is 288 % of control [survivor count not shown] under setting [4]; 173 % of control [survivor count not shown] (dose: 1.0 mg/kg/injection, schedule: Q01DX Z (ip), vehicle: carboxymethylcellulose (CMC)); 168 % of control [survivor count not shown] (dose: 2.0 mg/kg/injection, schedule: Q01DX Z (ip), vehicle: carboxymethylcellulose (CMC)); 88 % of control [survivor count not shown] (dose: 4.0 mg/kg/injection, schedule: Q01DX Z (ip), vehicle: carboxymethylcellulose (CMC)).

In the case of `NC(Cc1cccc(N(CCCl)CCCl)c1)C(=O)O` (stereo not drawn), the T/C is, setting by setting: (dose: 0.19 mg/kg/injection, schedule: Q01DX Z (ip), vehicle: carboxymethylcellulose (CMC)) 113 % of control [survivor count not shown]; (dose: 0.38 mg/kg/injection, schedule: Q01DX Z (ip), vehicle: carboxymethylcellulose (CMC)) 101 % of control [survivor count not shown]; under setting [5], 109 % of control [survivor count not shown]; (dose: 0.75 mg/kg/injection, schedule: Q01DX Z (ip), vehicle: carboxymethylcellulose (CMC)) 101 % of control [survivor count not shown]; under setting [6], 122 [survivor count not shown] and 142 % of control [survivor count not shown]; (dose: 1.5 mg/kg/injection, schedule: Q01DX Z (ip), vehicle: carboxymethylcellulose (CMC)) 130 % of control [survivor count not shown]. For the same molecule, the T/C under setting [1] was 118 [survivor count not shown] and 123 % of control [survivor count not shown].

In the case of `O=C(O)CN(CCCl)CCCl`, the T/C by setting is: (dose: 0.5 mg/kg/injection, schedule: Q01DX Z (ip), vehicle: saline) 93 [survivor count not shown] and 94 % of control [survivor count not shown]; under setting [5], 105 % of control [survivor count not shown]; (dose: 1.0 mg/kg/injection, schedule: Q01DX Z (ip), vehicle: saline) 89 % of control [survivor count not shown]; under setting [6], 120 [survivor count not shown] and 133 % of control [survivor count not shown]; under setting [1], 133 [survivor count not shown] and 135 % of control [survivor count not shown]; under setting [2], 133 % of control [survivor count not shown].

Take `ClCCNCCCl`: the T/C by setting is: (dose: 3.1 mg/kg/injection, schedule: Q01DX Z (ip), vehicle: carboxymethylcellulose (CMC)) 91 % of control [survivor count not shown]; (dose: 6.25 mg/kg/injection, schedule: Q01DX Z (ip), vehicle: carboxymethylcellulose (CMC)) 95 % of control [survivor count not shown]; (dose: 12.5 mg/kg/injection, schedule: Q01DX Z (ip), vehicle: carboxymethylcellulose (CMC)) 95 % of control [survivor count not shown]; (dose: 18.8 mg/kg/injection, schedule: Q01DX010 (ip), vehicle: saline) 90 [survivor count not shown] and 100 % of control [survivor count not shown]; (dose: 25.0 mg/kg/injection, schedule: Q01DX Z (ip), vehicle: carboxymethylcellulose (CMC)) 91 % of control [survivor count not shown]; (dose: 37.5 mg/kg/injection, schedule: Q01DX010 (ip), vehicle: saline) 95 [survivor count not shown] and 110 % of control [survivor count not shown]. For the same molecule, the T/C reads like this: (dose: 50.0 mg/kg/injection, schedule: Q01DX Z (ip), vehicle: carboxymethylcellulose (CMC)) 93 % of control [survivor count not shown]; (dose: 75.0 mg/kg/injection, schedule: Q01DX010 (ip), vehicle: saline) 105 [survivor count not shown] and 120 % of control [survivor count not shown].
